Earlier results in article PMC6009889, “Kinetic and structural studies on the interactions of Torpedo californica acetylcholinesterase with two donepezil-like rigid analogues” (Journal of Enzyme Inhibition and Medicinal Chemistry, 2018).

Details: cited from earlier work

## COc1cc2c(cc1OC)C(=O)C(CC1CCN(Cc3ccccc3)CC1)C2 (stereo not shown) [Donepezil, donepezil]
  pKa: 8.94 ± 0.18
